In all, about 300,000 compounds went through this assay and about 4,000 (1.3%) were called active. The shares of active, inactive and inconclusive entries below differ from those in the screen.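 Rule for the calls: active = mean replicate score, as percent of positive control median, at least 50; inconclusive = mean below 50 but one replicate at or above 50; inactive = mean and every replicate below 50.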
Assay: kanamycin survival loss of SKKanGAS strain – BacTiter-Glo luminescence, streptokinase expression inhibitor project, primary screen (AID 1662);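 note: strain carries kanamycin resistance gene driven by streptokinase promoter and grows in 40 µg/ml kanamycin; loss of luminescence reflects streptokinase promoter inhibition or plain growth inhibition; 0% = median of DMSO wells and 100% = positive control at its reference dose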
Conditions: S. pyogenes SKKanGAS, kanamycin growth, 6 h, at 7.5 µM, active compounds read high

Structure (SMILES)	inhibition
COc1ccccc1N1CCN(c2nc(C)nc3c2oc2ccccc23)CC1	inconclusive: 47.6%
COc1cccc(-c2coc3cc4oc(=O)c(CCC(=O)O)c(C)c4cc23)c1	inconclusive: 47.8%
Cc1ccnn2c(-c3ccccc3)c3c(=O)n(C)c(=O)n(C)c3c12	inconclusive: 22.2%
COc1ccc(-c2ccc3oc(-c4ccc(OC)cc4)c(C#CCO)c3c2)cc1	inconclusive: 49.2%
O=[N+]([O-])c1ccc(O)c(/C=N/NC2=NS(=O)(=O)c3ccccc32)c1	active: 59.2%
CCc1ccccc1NC(=O)NC(C)c1ccc2c(c1)OCO2 (stereo unspecified)	inconclusive: 41%
Cc1cccc(Cn2nc(C(C)(C)C)cc2C(=O)Nc2ccc(F)cc2)c1	inconclusive: 39.7%
CSc1nc(SCC(=O)O)c2sc3nc(-c4ccccc4)c4c(c3c2n1)CCC4	active: 68.4%
O=C(N/N=C(\c1ccccc1)c1ccccn1)c1cccc([N+](=O)[O-])c1	inconclusive: 32.7%
COc1c(CC=C(C)C)cc(C2CC(=O)c3c(O)cc(O)cc3O2)c(CC=C(C)C)c1O (stereo unspecified)	active: 109%
COc1ccc(-c2noc(-c3ccccc3-c3ccccc3)n2)cc1	inconclusive: 48.6%
C=CCn1c(Oc2ccc(C(=O)OC)cc2)nc2c1c(=O)n(C)c(=O)n2C	inconclusive: 46%
Cc1ccc(C(=O)N/C(=C\c2ccc3c(c2)OCO3)C(=O)Nc2ccc(C(=O)O)cc2)cc1	inactive: -7.97%
O=C(Nc1cccc(NC(=O)c2cccs2)c1)c1ccc(Br)o1	inactive: -1.75%
CS/C(N)=N/N=C/c1cc(Br)cc(Br)c1O	inconclusive: 43.9%
NS(=O)(=O)c1ccc(NC(=S)Nc2ccc(Br)c(Cl)c2)cc1	inconclusive: 29.1%
CCn1cc(CN2CCC(C(=O)Nc3ccc(Oc4cccnc4)cc3)CC2)cn1	inconclusive: 43.5%
CC(=O)c1ccc(NC(=S)Nc2cccc3ccccc23)cc1	inactive: 22.8%
CCOc1c(OC)cccc1C1CC(=O)Nc2cc(OC)c(OC)cc21 (stereo unspecified)	inactive: -1.9%
COc1ccc(-c2cc(C(F)(F)F)nc(N3CCCCCC3)n2)cc1	inconclusive: 48.1%
CC(=O)N1CCCc2cc(S(=O)(=O)CCC(=O)Nc3cccc(C)c3C)ccc21	inactive: 2.35%
O=C(NCc1ccco1)c1ccc(NS(=O)(=O)c2cccc(F)c2)cc1	inconclusive: 42.9%

Structure (SMILES)	inhibition
O=C(CSc1nnc2scc(-c3ccccc3)n12)N1CCN(Cc2ccccc2)CC1	inactive: 1.81%
FC(F)(F)c1nnc(Nc2ccc(Cl)cc2)s1	inactive: -1.49%
CCCC(=O)Nc1ccc2c(c1)nc(CCNC(=O)c1ccccc1)n2C	inconclusive: 29.2%
Cc1cnc(NC(=O)C2CCC(C(C)(C)C)CC2)s1 (stereo unspecified)	inconclusive: 43.2%
N#C/C(=C(/O)CCl)c1nc2c(s1)CCc1ccccc1-2	inconclusive: 38.2%
O=C(Nc1nnc(SCc2ccc(Cl)cc2Cl)s1)C1COc2ccccc2O1 (stereo unspecified)	inconclusive: 46.4%
C=CCn1c(N)c(C(=O)Nc2cccc(C)c2)c2nc3ccccc3nc21	active: 51.1%
O=C(CNC(=O)c1cccs1)Nc1ccncc1	inactive: -7.55%
Cc1cc(C(=O)OC(C(=O)Nc2cccc(C(F)(F)F)c2)c2ccccc2)c(C)o1 (stereo unspecified)	active: 71.2%
O=S(=O)(NCCSCc1c(Cl)cccc1Cl)c1ccc2c(c1)OCCO2	inconclusive: 48.5%
CC1CN(Cc2nc3c(c(=O)[nH]c(=O)n3C)n2CCCc2ccccc2)CC(C)O1 (stereo unspecified)	inconclusive: 24.6%
O=C(C[n+]1ccc2ccccc2c1)Nc1cc(C(F)(F)F)ccc1Cl	inconclusive: 30.7%
CNC(=S)N(CCc1c(C)[nH]c2ccc(Cl)cc12)Cc1cccs1	inconclusive: 38.7%
Nc1nonc1-c1nc2ccccc2n1CC(=O)N/N=C/c1ccc(-c2cccc(C(=O)O)c2)o1	active: 67.8%
O=C(CSc1nnc(NC(=O)c2ccccc2)s1)NCC1CCCO1 (stereo unspecified)	inconclusive: 45.6%
O=C(O)c1ccc(N2CC3CC(C2)c2cccc(=O)n2C3)c(NC(=S)Nc2ccc(Cl)cc2Cl)c1 (stereo unspecified)	inconclusive: 29.4%
N/C(=N\N=C\c1ccnc2ccccc12)SC1CC(=O)N(c2ccc(Br)cc2)C1=O (stereo unspecified)	inconclusive: 45.3%
OC(COC(c1ccc(Cl)cc1)c1ccc(Cl)cc1)CN1CCN(c2ccccn2)CC1 (stereo unspecified)	inconclusive: 33.4%
N#Cc1ccc(Cl)cc1NC(=O)CSc1nc2nc(-c3cccs3)cc(C(F)(F)F)c2c(=O)[nH]1	active: 55%
Cc1ccc(C)c(CSc2nnc(CCN)o2)c1	inactive: 6%
Cc1ccc(C)c(NC(=S)N/N=C2\CCc3ccccc32)c1	inconclusive: 49.2%
COc1cccc(-n2nnc3c(=O)n(Cc4ccccc4Cl)cnc32)c1	inconclusive: 48.6%

Not a retest: entries from further up.
Structure (SMILES)	inhibition
O=C(CSc1nnc2scc(-c3ccccc3)n12)N1CCN(Cc2ccccc2)CC1	inactive: 1.81%
FC(F)(F)c1nnc(Nc2ccc(Cl)cc2)s1	inactive: -1.49%
CCCC(=O)Nc1ccc2c(c1)nc(CCNC(=O)c1ccccc1)n2C	inconclusive: 29.2%

Additional results follow.

Structure (SMILES)	inhibition
O=C(O)CCSc1ccc([N+](=O)[O-])cc1[N+](=O)[O-]	inconclusive: 25.6%
Cc1sc2ncnc(Sc3nnnn3-c3ccc(Cl)cc3)c2c1C	inconclusive: 39.5%
COc1ccc(NC(=O)Cn2nnc(C(=O)NCc3cccs3)c2N)cc1Cl	inconclusive: 38%
COC(=O)c1ccc(Cl)c(NC(=O)CSc2nnc(-c3ccncc3)o2)c1	inconclusive: 35.4%
O=C(Cc1cccs1)NNC(=S)NC(=O)c1ccco1	inconclusive: 39.4%
COc1ccc(CSCCNC(=S)Nc2ccccc2)cc1Cl	active: 62.7%
Cc1ccccc1C(=O)N/C(=C/c1ccc(-c2cccnc2Cl)o1)C(=O)NCCCN1CCN(C)CC1	inconclusive: 22.6%
COc1cc2nc(C3CCC3)nc(N3CCN(c4ccccc4OC)CC3)c2cc1OC	inconclusive: 43.7%
O=C(Nc1cccc2ccccc12)N(CCO)C1CCS(=O)(=O)C1 (stereo unspecified)	inactive: 0.602%
CC(C)c1ccc(O)c(NC(=S)NC(=O)c2ccc3c(c2)OCO3)c1	active: 60.3%
Cc1cccc(Oc2nc(-c3ccncc3)nc3ccccc23)c1	inconclusive: 49.3%
O=C(Nc1cccc(NC(=O)c2ccccc2Cl)c1)c1ccc([N+](=O)[O-])o1	inconclusive: 36.8%
COC(=O)c1ccc(NC(=O)c2cnc3scc(C)n3c2=O)cc1	inactive: 0.936%
CCN(CC)CCN(C(=O)CCS(=O)(=O)c1ccccc1)c1nc2c(C)cc(C)cc2s1	inconclusive: 45.4%
COc1ccc(Nc2ncnc3scc(-c4ccc(OC)cc4)c23)cc1	active: 50%
CC(C)N1CCc2c(sc(NC(=O)c3ccc([N+](=O)[O-])o3)c2C(N)=O)C1	inconclusive: 46.4%
CS(=O)(=O)N1CCN(c2ccc([N+](=O)[O-])c3cccnc23)CC1	inactive: -3.15%
COCCCN1C(=O)/C(=C/c2ccc(CNS(=O)(=O)c3ccccc3)o2)C(C(=O)OC)=C1C	inconclusive: 45.5%
Cc1ccc(Cl)cc1N1CCN(C(=O)C2(S(=O)(=O)c3ccc(Cl)cc3)CC2)CC1	inactive: 10.4%
CC(=O)c1cccc(NS(=O)(=O)c2c(C)n[nH]c2C)c1	inconclusive: 35.8%
CN1C(=O)NC(c2ccccc2)(C(F)(F)F)S/C1=C(/C#N)c1nnc(N2CCOCC2)n1-c1ccccc1 (stereo unspecified)	inconclusive: 27.4%
N/C(=N\OC(=O)c1ccc(Br)cc1)c1ccncc1	inactive: -21.1%

3 of these compounds, reformatted:
Structure (SMILES),inhibition
CC1CN(Cc2nc3c(c(=O)[nH]c(=O)n3C)n2CCCc2ccccc2)CC(C)O1 (stereo unspecified),inconclusive: 24.6%
CNC(=S)N(CCc1c(C)[nH]c2ccc(Cl)cc12)Cc1cccs1,inconclusive: 38.7%
CC(C)N1CCc2c(sc(NC(=O)c3ccc([N+](=O)[O-])o3)c2C(N)=O)C1,inconclusive: 46.4%

The results go on:

Structure (SMILES)	inhibition
Oc1c(C(Nc2cccc(C(F)(F)F)c2)c2cccnc2)ccc2cccnc12 (stereo unspecified)	inconclusive: 49.1%
Cc1ccc(NC(=O)C(OC(=O)c2ccc(NC(N)=O)cc2)c2ccccc2)cc1Cl (stereo unspecified)	inconclusive: 39.9%
Cc1ccc(N2C(=O)C3N=NN(CC(=O)N4N=C(c5cccc6ccccc56)CC4c4ccccc4)C3C2=O)cc1 (stereo unspecified)	inconclusive: 45.7%
O=C(CSc1nnc(CNC(=O)c2ccccc2)o1)NCc1ccccc1	inconclusive: 39.8%
O=C(Nc1cnn(Cc2ccc(Cl)c(Cl)c2)c1)C12CC3CC(CC(C3)C1)C2	inconclusive: 41.5%
CCOC(=O)c1c(C)n(C)c2ccc(OC)c(NC(=O)CCN3CCC(Cc4ccccc4)CC3)c12	inactive: 6.76%
O=C(Nc1ccc2nc(-c3ccc4nc[nH]c4c3)[nH]c2c1)c1cccs1	inconclusive: 44.9%
CN(C)c1ccc(/C=C/c2ccc3ccccc3[n+]2C)cc1	inconclusive: 47.8%
CCOC(=O)/C(C#N)=C1/C=CN(c2ccccc2)C=N1	inactive: 1.06%
CCc1ccc2c(c1)c(N=NC1=NC(=O)CS1)c(O)n2CC	inconclusive: 45%
COc1cc2nc(CSc3nc(-c4ccc(F)cc4)cs3)[nH]c(=O)c2cc1OC	inconclusive: 34.8%
COc1ccccc1/C=C/CN1CCSCC1	inactive: 4.3%
Cc1cc(C)[n+](Cc2ccccc2)cc1C(N)=O	inactive: -5.04%
NS(=O)(=O)c1ccc(NCc2cc(Cl)ccc2OCc2ccccc2F)cc1	inconclusive: 41.5%
Cc1nnc(SC(C(=O)Nc2cc(Cl)cc(Cl)c2)c2ccccc2)[nH]c1=O (stereo unspecified)	inconclusive: 39.7%
NC(=S)N/N=C/c1ccc(-c2cc(Cl)cc(Cl)c2)o1	inactive: -2.73%
O=C(Nc1cc(Cl)ccc1-n1cncn1)c1ccc([N+](=O)[O-])o1	inconclusive: 36.9%
COc1ccc(NC(=S)Nc2cccc(C(C)=O)c2)cc1OC	inconclusive: 17.8%
O=C(N/N=C/c1cc(Cl)cc([N+](=O)[O-])c1O)c1ccccc1NS(=O)(=O)c1cccs1	inconclusive: 48.4%
COc1ccccc1CCNC(=O)C(=O)c1cn(CC(=O)N2CCCC2)c2ccccc12	inconclusive: 37.9%

Reference: PubChem BioAssay AID1662 (Broad Institute, 2009)
